Reference: PubChem BioAssay AID192 (DTP/NCI, 2004)
The list does not hold the whole screen: it covers a few groups of compounds. Other doses and runs of a compound may be missing. T/C: endpoint of the treated group in % of that of the vehicle group. For survival time, the PubChem record calls one and a half times the control and up active, and a quarter to a half above the control has no call in these data; cut-offs in other NCI protocols can differ. Schedule codes are those of the source, read here as Q, the interval in days (D) or hours (H), X, the number of doses. Some entries show no survivor count and are marked so; the dose need not have been tolerated. Some entries were tested several times; the results are listed from low to high.

System: BDF1 mice, B16 melanoma ip, median survival T/C
Experiment: NCI In Vivo Anticancer Drug Screen. Data for tumor model B16 Melanoma (intraperitoneal) in B6D2F1 (BDF1) mice
Details: T/C endpoint: median survival time, higher T/C = longer survival
Procedure, shortened: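 Survival or tumor size is measured after treatment of tumor-bearing mice and normalised to the vehicle-treated control group.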

CC1=C[C@H]2O[C@@H]3C[C@H]4OC(=O)/C=C\C=C\C(C(C)O)OCC[C@@H](C)[C@H](O)C(=O)OC[C@@]2(CC1)[C@]4(C)[C@]31CO1 (stereo partly specified)
T/C (dose: 0.04 mg/kg/injection, schedule: Q01DX009 (ip), vehicle: saline with Tween-80): 137 % of control [survivor count not shown] | T/C (dose: 0.09 mg/kg/injection, schedule: Q04DX003 (ip), vehicle: other): 116 % of control [survivor count not shown] | T/C (dose: 0.19 mg/kg/injection, schedule: Q04DX003 (ip), vehicle: other): 159 % of control [survivor count not shown] | T/C (dose: 0.38 mg/kg/injection, schedule: Q04DX003 (ip), vehicle: other): 159 % of control [survivor count not shown] | T/C (dose: 77.8 micrograms/kg/injection, schedule: Q04DX003 (ip), vehicle: saline + alcohol): 105 % of control [survivor count not shown] | T/C (dose: 130.0 micrograms/kg/injection, schedule: Q04DX003 (ip), vehicle: saline + alcohol): 116 % of control [survivor count not shown] | T/C (dose: 216.0 micrograms/kg/injection, schedule: Q04DX003 (ip), vehicle: saline + alcohol): 113 % of control [survivor count not shown] | T/C (dose: 360.0 micrograms/kg/injection, schedule: Q04DX003 (ip), vehicle: saline + alcohol): 121 % of control [survivor count not shown]

C=C(C)C(=O)OC[C@]12CCC(C)=C[C@H]1O[C@@H]1[C@H](O)[C@@H](O)[C@@]2(C)[C@@]12CO2
T/C (dose: 0.12 mg/kg/injection, schedule: Q01DX009 (ip), vehicle: saline + alcohol): 120 % of control [survivor count not shown] | T/C (dose: 0.25 mg/kg/injection, schedule: Q01DX009 (ip), vehicle: saline + alcohol): 132 % of control [survivor count not shown] | T/C (dose: 0.5 mg/kg/injection, schedule: Q01DX009 (ip), vehicle: saline + alcohol): 145 % of control [survivor count not shown] | T/C (dose: 1.0 mg/kg/injection, schedule: Q01DX009 (ip), vehicle: saline + alcohol): 143 % of control [survivor count not shown]

CC1=C[C@H]2O[C@@H]3[C@H](OC(=O)CCl)[C@@H](O)[C@](C)(C2(COC(=O)CCl)CC1)[C@@]31CO1 (stereo partly specified)
T/C (dose: 0.75 mg/kg/injection, schedule: Q01DX009 (ip), vehicle: saline + alcohol): 103 % of control [survivor count not shown] | T/C (dose: 1.5 mg/kg/injection, schedule: Q01DX009 (ip), vehicle: saline + alcohol): 108 % of control [survivor count not shown] | T/C (dose: 3.0 mg/kg/injection, schedule: Q01DX009 (ip), vehicle: saline + alcohol): 114 % of control [survivor count not shown] | T/C (dose: 6.0 mg/kg/injection, schedule: Q01DX009 (ip), vehicle: saline + alcohol): 122 % of control [survivor count not shown] | T/C (dose: 12.0 mg/kg/injection, schedule: Q01DX009 (ip), vehicle: saline + alcohol): 115 % of control [survivor count not shown]

CC(=O)OCC12CC(O)C(C)=CC1OC1C(O)C(OC(C)=O)C2(C)C12CO2 (stereo unspecified)
T/C (dose: 0.31 mg/kg/injection, schedule: Q01DX009 (ip), vehicle: saline): 131 % of control [survivor count not shown] | T/C (dose: 0.62 mg/kg/injection, schedule: Q01DX009 (ip), vehicle: saline): 153 % of control [survivor count not shown] | T/C (dose: 0.63 mg/kg/injection, schedule: Q01DX009 (ip), vehicle: saline): 160 % of control [survivor count not shown] | T/C (dose: 1.25 mg/kg/injection, schedule: Q01DX009 (ip), vehicle: saline): 138 [survivor count not shown] and 159 % of control [survivor count not shown] | T/C (dose: 2.5 mg/kg/injection, schedule: Q01DX009 (ip), vehicle: saline): 154 [survivor count not shown] and 167 % of control [survivor count not shown]

C[C@H](O)[C@H]1/C=C/C=C\C(=O)O[C@@H]2C[C@H]3O[C@@H]4[C@@H]5O[C@]5(C)CCC4(COC(=O)[C@H]4O[C@]4(C)[C@@H](O)CO1)[C@]2(C)[C@]31CO1 (stereo partly specified)
T/C (dose: 156.0 micrograms/kg/injection, schedule: Q01DX009 (ip), vehicle: saline + alcohol): 118 % of control [survivor count not shown] | T/C (dose: 312.0 micrograms/kg/injection, schedule: Q01DX009 (ip), vehicle: saline + alcohol): 130 % of control [survivor count not shown] | T/C (dose: 625.0 micrograms/kg/injection, schedule: Q01DX009 (ip), vehicle: other): 166 % of control [survivor count not shown] | T/C (dose: 625.0 micrograms/kg/injection, schedule: Q01DX009 (ip), vehicle: saline + alcohol): 140 % of control [survivor count not shown] | T/C (dose: 1250.0 micrograms/kg/injection, schedule: Q01DX009 (ip), vehicle: other): 162 % of control [survivor count not shown] | T/C (dose: 1250.0 micrograms/kg/injection, schedule: Q01DX009 (ip), vehicle: saline + alcohol): 134 % of control [survivor count not shown] | T/C (dose: 2500.0 micrograms/kg/injection, schedule: Q01DX009 (ip), vehicle: saline + alcohol): 145 % of control [survivor count not shown] | T/C (dose: 5000.0 micrograms/kg/injection, schedule: Q01DX009 (ip), vehicle: saline + alcohol): 156 % of control [survivor count not shown]

C[C@@H](O)[C@H]1/C=C/C=C\C(=O)O[C@@H]2C[C@H]3O[C@@H]4[C@@H]5OC5(C)CCC4(COC(=O)[C@H]4O[C@]4(C)[C@@H](O)CO1)[C@]2(C)[C@]31CO1 (stereo partly specified)
T/C (dose: 0.75 mg/kg/injection, schedule: Q04DX003 (ip), vehicle: other): 123 % of control [survivor count not shown] | T/C (dose: 1.5 mg/kg/injection, schedule: Q04DX003 (ip), vehicle: other): 117 % of control [survivor count not shown] | T/C (dose: 1.94 mg/kg/injection, schedule: Q04DX003 (ip), vehicle: saline + alcohol): 128 % of control [survivor count not shown] | T/C (dose: 1.94 mg/kg/injection, schedule: Q04DX003 (sc), vehicle: other): 115 % of control [survivor count not shown] | T/C (dose: 3.0 mg/kg/injection, schedule: Q04DX003 (ip), vehicle: other): 112 % of control [survivor count not shown] | T/C (dose: 3.24 mg/kg/injection, schedule: Q04DX003 (ip), vehicle: other): 124 % of control [survivor count not shown] | T/C (dose: 3.24 mg/kg/injection, schedule: Q04DX003 (ip), vehicle: saline + alcohol): 131 % of control [survivor count not shown] | T/C (dose: 3.24 mg/kg/injection, schedule: Q04DX003 (sc), vehicle: other): 115 % of control [survivor count not shown] | T/C (dose: 5.4 mg/kg/injection, schedule: Q04DX003 (ip), vehicle: other): 115 % of control [survivor count not shown] | T/C (dose: 5.4 mg/kg/injection, schedule: Q04DX003 (ip), vehicle: saline + alcohol): 138 % of control [survivor count not shown] | T/C (dose: 9.0 mg/kg/injection, schedule: Q04DX003 (sc), vehicle: other): 106 % of control [survivor count not shown]

CC(=O)O[C@@H]1[C@@H](O)[C@H]2O[C@@H]3C=C(C)C(=O)[C@@H](O)[C@]3(CO)[C@]1(C)[C@]21CO1
T/C (dose: 0.1 mg/kg/injection, schedule: Q01DX009 (ip), vehicle: saline): 108 % of control [survivor count not shown] | T/C (dose: 0.2 mg/kg/injection, schedule: Q01DX009 (ip), vehicle: saline, evaluated on day 45): 108 % of control [survivor count not shown] | T/C (dose: 0.2 mg/kg/injection, schedule: Q01DX009 (ip), vehicle: saline, evaluated on day 60): 113 % of control [survivor count not shown] | T/C (dose: 0.4 mg/kg/injection, schedule: Q01DX009 (ip), vehicle: saline, evaluated on day 45): 102 % of control [survivor count not shown] | T/C (dose: 0.4 mg/kg/injection, schedule: Q01DX009 (ip), vehicle: saline, evaluated on day 60): 119 [survivor count not shown] and 136 % of control [survivor count not shown] | T/C (dose: 0.8 mg/kg/injection, schedule: Q01DX009 (ip), vehicle: saline, evaluated on day 45): 136 % of control [survivor count not shown] | T/C (dose: 0.8 mg/kg/injection, schedule: Q01DX009 (ip), vehicle: saline, evaluated on day 60): 143 [survivor count not shown] and 155 % of control [survivor count not shown] | T/C (dose: 1.6 mg/kg/injection, schedule: Q01DX009 (ip), vehicle: saline): 146 % of control [survivor count not shown]

CC1=C[C@H]2O[C@@H]3[C@H](O)[C@@H](O)[C@](C)([C@@]2(CO)CC1)[C@@]31CO1
T/C (dose: 0.5 mg/kg/injection, schedule: Q01DX009 (ip), vehicle: saline): 108 % of control [survivor count not shown] | T/C (dose: 2.0 mg/kg/injection, schedule: Q01DX009 (ip), vehicle: saline): 107 % of control [survivor count not shown]
